In EP0548441A1, “Endothelin antagonists” (Japat Ltd, priority 1991, dated 1993):
For at least one compound, name, drawing or mass did not settle the structure.

Target: T1, ETB receptor (Sus scrofa, UniProt P35463)
T1 sequence (P35463 27-443): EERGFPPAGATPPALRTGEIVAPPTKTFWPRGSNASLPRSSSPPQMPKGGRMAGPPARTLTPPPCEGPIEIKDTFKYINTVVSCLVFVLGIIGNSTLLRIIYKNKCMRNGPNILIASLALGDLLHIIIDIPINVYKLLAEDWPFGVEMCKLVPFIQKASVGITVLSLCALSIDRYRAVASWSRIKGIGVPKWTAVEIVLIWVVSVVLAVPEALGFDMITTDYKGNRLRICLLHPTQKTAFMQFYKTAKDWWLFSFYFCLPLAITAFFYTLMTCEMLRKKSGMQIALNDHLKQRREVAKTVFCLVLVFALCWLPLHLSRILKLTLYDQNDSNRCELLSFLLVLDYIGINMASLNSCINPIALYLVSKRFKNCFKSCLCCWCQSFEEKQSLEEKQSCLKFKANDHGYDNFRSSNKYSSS
Experiment: Inhibition of [125I]ET-3 binding to porcine lung membranes
Details: apparent dissociation constant by Scatchard analysis, radioligand alone, porcine lung membrane

Molecule `CC[C@H](C)[C@H](NC(=O)[C@H](CC(=O)O)NC(=O)[C@H](CC(C)C)NC(=O)[C@H](Cc1c[nH]cn1)NC(=O)[C@@H]1CSSC[C@H](N)C(=O)N[C@@H]([C@@H](C)O)C(=O)N[C@H]2CSSC[C@H](NC(=O)[C@H](CCC(=O)O)NC(=O)[C@H](CCCCN)NC(=O)[C@H](CC(=O)O)NC(=O)[C@H](CCCCN)NC(=O)[C@H](Cc3ccc(O)cc3)NC(=O)[C@H]([C@@H](C)O)NC(=O)[C@H](Cc3ccccc3)NC2=O)C(=O)N[C@@H](C(C)C)C(=O)N[C@@H](Cc2ccc(O)cc2)C(=O)N[C@@H](Cc2ccc(O)cc2)C(=O)N1)C(=O)N[C@H](C(=O)N[C@@H](Cc1c[nH]c2ccccc12)C(=O)O)[C@@H](C)CC` [[¹²⁵I] ET-3] has a Kd of 8 pM.
